Test results: publication PMC3070753, “Biochemical and Structural Properties of Cyanases from Arabidopsis thaliana and Oryza sativa” (PLoS ONE, 2011)
These are yes or no findings as the source states them, for the method shown. In cells and extracts the contact can be indirect. Some entries that bind do so weakly or less than the wild type. Sequences can lack the tags named with a protein.

Legend:
[1] = molecular target: AtCYN, cyanase from Arabidopsis thaliana, HA-tagged and Flag-tagged copies (Arabidopsis thaliana) (UniProt O22683); experiment: co-IP; HA- and Flag-tagged copies co-expressed in N. benthamiana leaves; extract in 50 mM Tris-HCl pH 7.5, 150 mM NaCl, 0.1% Nonidet P-40; anti-HA or anti-FLAG monoclonal antibody with protein G Sepharose, 3 h at 4°C; western blot
[2] = molecular target: OsCYN, cyanase from Oryza sativa, HA-tagged and Flag-tagged copies (Oryza sativa) (UniProt Q9FWK4); experiment: as above

| Binder | binding [1] | binding [2] |
| --- | --- | --- |
| AtCYN, cyanase from Arabidopsis thaliana, HA-tagged and Flag-tagged copies (enzyme, UniProt O22683 1-168) MEAAKKQSVTNQLLAVKSASGKTFSQLAAETGLTNVYVAQLLRRQAQLKPDTVPKLKEALPALTDELIGDMMSPPWRSYDPNLIQEPTIYRLNEAVMHFGESIKEIINEDFGDGIMSAIDFYCSVDKIKGVDGNNRVVVTLDGKYLSHSEQRTENMVSRLNLKGGTSE | binds |  |
| OsCYN, cyanase from Oryza sativa, HA-tagged and Flag-tagged copies (enzyme, UniProt Q9FWK4 1-168) MEGGGGERAAGVVRRLMAAKAESRKSFSEIGEEAGLTNVYVAQLLRRQAQLKPETAPALRAAVPGLTDDLVALMMEPPFRSYHPDIVHEPAIYRLNEAVMHFGESIKEIINEEFGDGIMSAIDFYCSVDKVQGADGKDRVVVTFDGKYLPYSEQRSDHMMSRLTRKTS |  | binds |
